Binding data for 1 substance are collected here from paper PMC10462637.

Protein sequences, listed by entry. Tags and fused reporters are not part of them.
UniProt Q68E01: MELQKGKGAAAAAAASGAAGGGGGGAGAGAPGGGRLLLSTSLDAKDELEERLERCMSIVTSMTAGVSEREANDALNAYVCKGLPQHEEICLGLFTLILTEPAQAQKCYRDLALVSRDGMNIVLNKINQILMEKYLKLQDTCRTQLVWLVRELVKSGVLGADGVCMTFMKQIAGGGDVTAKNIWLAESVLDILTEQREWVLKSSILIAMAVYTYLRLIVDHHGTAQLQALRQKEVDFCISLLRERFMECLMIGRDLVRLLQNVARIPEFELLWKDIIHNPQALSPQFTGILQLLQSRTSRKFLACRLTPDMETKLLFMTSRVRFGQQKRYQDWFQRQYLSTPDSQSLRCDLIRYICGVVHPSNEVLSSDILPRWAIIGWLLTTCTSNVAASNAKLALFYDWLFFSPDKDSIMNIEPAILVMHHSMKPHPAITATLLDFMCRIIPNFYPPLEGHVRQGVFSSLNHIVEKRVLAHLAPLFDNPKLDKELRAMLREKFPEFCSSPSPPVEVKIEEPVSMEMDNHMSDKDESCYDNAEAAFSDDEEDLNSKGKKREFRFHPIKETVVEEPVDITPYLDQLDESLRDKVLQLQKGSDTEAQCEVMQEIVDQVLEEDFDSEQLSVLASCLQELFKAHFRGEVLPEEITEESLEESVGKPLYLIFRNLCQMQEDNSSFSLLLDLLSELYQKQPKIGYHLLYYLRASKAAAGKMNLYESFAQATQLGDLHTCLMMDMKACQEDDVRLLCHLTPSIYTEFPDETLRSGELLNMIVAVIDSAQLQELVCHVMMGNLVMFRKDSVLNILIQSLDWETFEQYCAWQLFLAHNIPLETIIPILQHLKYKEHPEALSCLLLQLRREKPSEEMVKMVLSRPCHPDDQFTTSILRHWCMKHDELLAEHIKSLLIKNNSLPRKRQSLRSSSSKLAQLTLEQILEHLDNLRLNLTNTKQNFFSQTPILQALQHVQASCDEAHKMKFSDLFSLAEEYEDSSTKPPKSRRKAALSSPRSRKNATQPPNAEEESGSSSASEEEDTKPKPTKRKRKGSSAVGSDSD
UniProt Q96AH0: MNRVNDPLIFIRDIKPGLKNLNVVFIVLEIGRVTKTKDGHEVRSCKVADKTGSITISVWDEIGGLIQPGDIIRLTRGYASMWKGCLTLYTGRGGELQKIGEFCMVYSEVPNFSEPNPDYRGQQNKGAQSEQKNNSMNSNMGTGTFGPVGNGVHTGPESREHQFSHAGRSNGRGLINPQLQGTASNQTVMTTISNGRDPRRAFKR

No constants are given. Whether binding was seen depends on the method and setting. In cells and extracts the contact can be indirect. Some results given as binding are weak or reduced against the parent protein; the word gives no strength.

The experiment deals with SFB-SOSSA (UniProt Q68E01). Briefly: co-IP; 293T cells co-transfected for 24 h, lysed and sonicated in NETN buffer (0.5% NP-40, 20 mM Tris-HCl pH 8.0, 0.1 mM NaCl, 1 mM EDTA, protease inhibitor); supernatant incubated with S protein beads for 4 h, washed with NETN; Western blotting. On the technique in general: A western blot detects proteins with antibodies after separation by electrophoresis.

As for “SOSSB2 (wild type, full length) (from UniProt Q96AH0 1-204)”, the binding entry was “binds”.
